Results on one molecule are retold here after paper PMC9166791.

By UniProt entry, the sequences of proteins in these tests, tags left out. Where a name states a change or a piece, a line headed by the entry shows the natural chain unless it says otherwise.
UniProt Q9ES97: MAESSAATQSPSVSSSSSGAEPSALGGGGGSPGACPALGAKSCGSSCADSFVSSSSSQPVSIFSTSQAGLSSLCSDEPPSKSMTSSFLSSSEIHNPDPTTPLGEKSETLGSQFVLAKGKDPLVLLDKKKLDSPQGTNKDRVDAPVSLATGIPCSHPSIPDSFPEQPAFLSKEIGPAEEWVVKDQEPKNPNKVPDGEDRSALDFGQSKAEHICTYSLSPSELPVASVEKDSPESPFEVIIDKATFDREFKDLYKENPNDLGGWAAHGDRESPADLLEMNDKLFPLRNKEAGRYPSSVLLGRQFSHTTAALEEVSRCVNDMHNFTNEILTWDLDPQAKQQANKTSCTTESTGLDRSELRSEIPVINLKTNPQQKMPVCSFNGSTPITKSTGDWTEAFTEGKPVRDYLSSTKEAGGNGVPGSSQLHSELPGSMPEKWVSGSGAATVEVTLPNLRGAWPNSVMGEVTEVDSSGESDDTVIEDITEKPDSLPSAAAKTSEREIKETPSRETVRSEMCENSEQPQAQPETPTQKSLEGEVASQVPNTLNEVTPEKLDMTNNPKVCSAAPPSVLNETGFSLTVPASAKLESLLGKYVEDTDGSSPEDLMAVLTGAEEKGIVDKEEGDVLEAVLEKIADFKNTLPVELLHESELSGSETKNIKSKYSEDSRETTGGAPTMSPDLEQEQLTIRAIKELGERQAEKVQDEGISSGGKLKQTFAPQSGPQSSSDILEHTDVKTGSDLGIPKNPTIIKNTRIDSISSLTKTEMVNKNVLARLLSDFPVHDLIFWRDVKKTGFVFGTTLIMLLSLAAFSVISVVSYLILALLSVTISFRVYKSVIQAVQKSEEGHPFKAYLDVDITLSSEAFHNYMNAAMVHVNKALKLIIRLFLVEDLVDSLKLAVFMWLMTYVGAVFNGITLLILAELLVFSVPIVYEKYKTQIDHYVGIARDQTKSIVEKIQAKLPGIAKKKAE

No constants are given. Whether binding was seen depends on the method and setting. Binding seen in cells or lysates may run through a third protein. A result given as binding can be weak or reduced; the word gives no strength.

For this assay, the target named is Reticulon 3 (RTN3) (mouse (endogenous in renal tubular epithelial cells of WT mice)) (UniProt Q9ES97). Put plainly: co-IP; endogenous proteins; lysates (500 ug in 1 mL) immunoprecipitated with Protein A + G beads overnight, Western blot; legend: mouse renal tubular epithelial cells, methods: kidney tissues of WT mice. For orientation: Immunoblotting shows a protein as a band on a membrane.

B1: GC-Rich Promoter Binding Protein 1 (GPBP1) (protein, UniProt Q6NXH3 1-473)
chain: MAQHDFAPAWLNFPTPPSSTKSSLNFEKHSENFSWTENRYDVSRRRHNSSDGFDSGIGRPNGGNFGRKEKNGWRTHGRNGTENINHRGGYHGGNSRSRSSIFHSGKSQGLHENSIPDNETGRKEDKRERRQFEAEDFPSLNPEYEREPNQNKSLAAGVWDYPPNPKSRTPRMLVIKKGNTKDLQLSGFPVAGNLQSQPVKNGTGPSVYKGLVPKPAVPPTKPTQWKSQTKENKVGTSFSHESTYGVGNFNTFKSTAKNISPSTNSVKECNRSNSSSPVDKLNQQPRLTKLTRMRSDKKSEFLKALKRDRVEEEHEDESHAGSEKDDDSFNLHNSNTTHQERDINRNFDENEIPQENGNASMISQQIIRSSTFPQTDVLSSSLEAEHRLLKEMGWQEDSENDETCAPLTEDEMREFQVISEQLQKNGLRKNGILKNGLICDFKFGPWKNSTFKPTIENDDTETSSSDTSDDDDV
B1: the binding entry is “binds”.
